This experiment concerns the target eS32 ribosomal protein (Pyrococcus furiosus (endogenous in P. furiosus cells)). Briefly: cryo-EM structure; 1 uM P. furiosus 30S subunits with 5 uM aRDF (1:5) in 20 mM HEPES-KOH pH 7.0, 12 mM MgCl2, 100 mM NH4Cl, 0.5 mM EDTA; 15 min at 70 °C before freezing; Structures I and II at 3.2 Å; both purified.

The values that follow come from PMC11724365, “Novel archaeal ribosome dimerization factor facilitating unique 30S–30S dimerization” (Nucleic Acids Research, 2025).

Results are given in words; binding and its absence hold for the method and conditions named. A result given as binding can be weak or reduced; the word gives no strength.

B1: archaeal ribosome dimerization factor (aRDF) (natural protein, Pyrococcus furiosus)
chain: MKVVGIKGSVSYLQALKYLKTKKVTKRLKEIEKLVDTLITLAPYAPEGSKIETIRKNYAKISFNKIKTVSRSKIGSPRIKSIMLLLWNFGLLDVKIIENSWYVRKTKLASLLEENFKDLSPSEKLKVYLLGGLLVDTPARFVYRCTLNGVEDYKGVKKAILGYLSDQRSNSLIIGLSNMLESIKFIEEAQAYSGKKEYIGLVDVAFYGLSGLYLDVKRESGKLTVKPNFRELRALYEIDKSVATGSDYGLSISKEILENLANTKRRKTIFSEEVQELLVNVIKENAISISQDLQNMYGII
notes: aRDF (PF0560 protein) of Pyrococcus furiosus; modelled in PDB 9FNY and 9FNZ with poorly defined loops omitted; Forms homodimers (monomers A and B); two homodimers bridge two 30S subunits in the cryo-EM structures; also called PF0560; PF0560 protein; source: E. coli BL21(DE3), purified (heat treatment, Ni-NTA, heparin)
Turning to B1, the binding result is recorded as “binds”.
